Values of other authors in US20140296143A1, “Angiotensin-(1-7) As A Chemoprevention Agent” (Wake Forest Innovations, priority 2008, published 2014).

Details: 11 patients with essential hypertension, 6 months of treatment, Luque 1996, cited from earlier work

C[C@H](CS)C(=O)N1CCC[C@H]1C(=O)O [Captopril, reference compound]
plasma Ang-(1-7) levels after treatment (before 0.042±0.040): 0.083 ± 0.079 nM
plasma Ang-(1-7) levels after treatment (before 38±36): 7.49 ± 13.7 pg/mL

Read-outs that look alike come from different tables or passages of the source.
